Data as given in PubChem BioAssay AID445 (National Center for Advancing Translational Sciences (NCATS), 2006).
The list shows a part of the results. The main result of the screen is listed elsewhere. These columns were measured beside it and carry no call. The list favours compounds with an active or inconclusive main result. Potencies come from curve fits of mixed quality, noted in brackets.

assay: IkB Signaling; conditions: ABC-DLBCL IkBa-CBG/CBR dual luciferase ratio (green luciferase fused to IkBa over red control in OCI-Ly3 lymphoma cells), 4 h; measured here: control luc red channel unless noted
In short: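 In this assay, an IκBα–CBG68 fusion accumulates when IKK-driven degradation is blocked; native CBR normalizes for cell number. OCI-Ly3 cells were treated 4 h with compound and doxycycline, then green and red light read after Chroma-Glo addition.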

Question: With `COc1ccc(-c2c3c(=O)n(C)c(=O)n(C)c3c3n2-c2ccccc2NC3c2ccc(OC)cc2)cc1` (stereo not drawn) as the molecule, how does the AC50 read?
Answer: 20 µM [falling, partial curve]

Question: For `Cc1ccc(NC(=O)c2cc(S(=O)(=O)N(C)C3CCCCC3)ccc2F)cc1C`, which AC50 is on record?
Answer: 15.8 µM [falling, partial curve]

Question: With `COC(=O)c1ccc(CSc2nncn2C)cc1` as the molecule, how does the AC50 read?
Answer: 12.6 µM [falling, partial curve]

Question: With `O=C(Nc1ccc(C(=O)N2CCN(c3cccc(Cl)c3)CC2)cc1)c1nsc2ccccc12` as the molecule, how does the AC50 read?
Answer: 0.158 µM [falling, full curve]

Question: With `COc1ccccc1-c1cc(C(F)(F)F)nc(S(=O)(=O)CCCC(=O)N2CCCCC2C)n1` (stereo not drawn) as the molecule, how does the AC50 read?
Answer: 1.26 µM [falling, full curve]

Question: With `CSc1cccc(NC(=O)CSc2nc3ccccc3o2)c1` as the molecule, how does the AC50 read?
Answer: 15.8 µM [falling, partial curve]

Question: Which AC50 does the source give for `COc1ccccc1CCNC(=O)c1ccc2c(c1)c(C)c(C)n2C` here?
Answer: 15.8 µM [falling, partial curve]

Question: For `COc1ccc(NC(=O)CSc2ncc(-c3ccc(Cl)cc3)[nH]2)cc1OC`, which AC50 is on record?
Answer: 7.94 µM [falling, partial curve]

Question: Which AC50 does the source give for `COC(=O)c1ccc(NC(=O)CC2C(=O)N(c3ccc(Cl)cc3)C(=O)N2Cc2cccs2)cc1` (stereo not drawn) here?
Answer: 25.1 µM [falling, partial curve]

Question: With `Cc1cc(S(=O)(=O)Nc2cccc(C(=O)O)c2)c(C)c(S(=O)(=O)c2ccccc2)c1` as the molecule, how does the AC50 read?
Answer: 7.94 µM [falling, full curve]

Question: For `COC(=O)c1cc(NC(=O)CCc2c(C)nc3c4c(C)cc(C)nc4nn3c2C)cc(C(=O)OC)c1`, which AC50 is on record?
Answer: 5.01 µM [rising, partial curve]

Question: Which AC50 does the source give for `CCOC(=O)c1sc(N2C(=O)c3oc4cc(C)c(C)cc4c(=O)c3C2c2cccc(O)c2)nc1C` (stereo not drawn) here?
Answer: 10 µM [falling, partial curve]

Question: Which AC50 does the source give for `Cc1ccc(Cn2c(=O)n(CCCCC(=O)NCCc3ccc(Cl)cc3)c(=O)c3ccccc32)cc1` here?
Answer: 25.1 µM [falling, single point]

Question: With `Cc1ccccc1OCCCC(=O)Nc1ccc2c(c1)OCO2` as the molecule, how does the AC50 read?
Answer: 25.1 µM [falling, partial curve]

Question: For `COc1ccccc1-c1nc(-c2ccc(Br)cc2)no1`, which AC50 is on record?
Answer: 0.00251 µM [falling, full curve]

Question: With `Cc1cc(C)cc(OCC(=O)NCC(c2ccc(Cl)cc2)N2CCCCC2)c1` (stereo not drawn) as the molecule, how does the AC50 read?
Answer: 31.6 µM [falling, single point]

Question: With `CC1CCc2c(sc3nnn(Cc4ccc(F)cc4)c(=O)c23)C1` (stereo not drawn) as the molecule, how does the AC50 read?
Answer: 3.98 µM [falling, single point]

Question: For `O=C(NCc1ccccc1)c1cc(-c2cccc(Cl)c2)on1`, which AC50 is on record?
Answer: 10 µM [falling, partial curve, poor fit]
